Source: PMC8213825
No constants are given. Whether binding was seen depends on the method and setting. Binding seen in cells or lysates may run through a third protein. Some results given as binding are weak or reduced against the parent protein; the word gives no strength.

Sequences of proteins named here, by UniProt entry; tags and fusion partners are left off.
UniProt Q99873: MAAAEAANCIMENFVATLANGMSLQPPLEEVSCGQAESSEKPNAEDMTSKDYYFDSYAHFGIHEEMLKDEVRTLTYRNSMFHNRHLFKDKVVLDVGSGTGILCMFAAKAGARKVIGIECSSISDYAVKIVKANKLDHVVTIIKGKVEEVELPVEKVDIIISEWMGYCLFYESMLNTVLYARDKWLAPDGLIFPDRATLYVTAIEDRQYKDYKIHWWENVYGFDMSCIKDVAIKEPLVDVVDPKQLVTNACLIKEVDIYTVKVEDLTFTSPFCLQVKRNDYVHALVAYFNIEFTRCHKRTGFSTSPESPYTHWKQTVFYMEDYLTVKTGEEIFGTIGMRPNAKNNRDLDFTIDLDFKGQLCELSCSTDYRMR

Tests used:
[1] = biological target: T1, ectopically expressed full-length METTL14 (UniProt Q9HCE5); assay: co-IP; full-length or truncated METTL14 transfected into HeLa cells with PRMT1; western blot
T1 sequence: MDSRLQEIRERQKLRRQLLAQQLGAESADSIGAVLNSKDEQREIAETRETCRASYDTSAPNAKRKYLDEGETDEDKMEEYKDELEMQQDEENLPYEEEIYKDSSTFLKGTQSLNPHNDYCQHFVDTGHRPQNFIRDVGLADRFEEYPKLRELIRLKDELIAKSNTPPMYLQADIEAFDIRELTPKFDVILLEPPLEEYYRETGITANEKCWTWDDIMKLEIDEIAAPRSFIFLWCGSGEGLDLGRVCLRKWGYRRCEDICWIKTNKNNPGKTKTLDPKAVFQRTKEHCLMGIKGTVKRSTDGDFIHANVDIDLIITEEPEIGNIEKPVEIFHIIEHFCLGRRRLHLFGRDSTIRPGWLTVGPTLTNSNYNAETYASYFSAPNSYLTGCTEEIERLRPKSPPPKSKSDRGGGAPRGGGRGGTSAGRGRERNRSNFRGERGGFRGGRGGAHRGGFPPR

[2] = biological target: T2, METTL14 (endogenous, HeLa) (human (endogenous in HeLa)) (UniProt Q9HCE5); assay: co-IP; endogenous proteins in HeLa lysate; anti-METTL14 or anti-PRMT1 antibody with Dynabeads Protein G, 3 h at 4 C; IP buffer 25 mM Tris, 150 mM NaCl, 1 mM EDTA, 5% glycerol, Triton X-100; western blot
T2 sequence: T1 sequence

binding [1]	binding [2]	Substance
binds		PRMT1 (transfected into HeLa cells with METTL14 constructs) (from UniProt Q99873 1-371) (enzyme)
	binds	protein arginine N-methyltransferase 1 (PRMT1) (endogenous, HeLa) (from UniProt Q99873 1-371) (enzyme)
